Source: publication PMC4432228, “Tight regulation of the unfolded protein sensor Ire1 by its intramolecularly antagonizing subdomain” (Journal of Cell Science, 2015)
Results are given in words; binding and its absence hold for the method and conditions named. Some binding calls cover weakened binding; strength is not graded here. Where a sequence is shown, tags or fusion partners need not be part of it.

Tests used:
Experiment in all cases: two-hybrid; Matchmaker Gold; bait in pGBKT7 (Y2HGold) and prey in pGADT7 mated; tenfold dilutions spotted on -Leu/-Trp plates with 125 ng/ml aureobasidin A, 2-4 days at 30°C (Fig. 6A,B)
[1] = target: T1, N-terminal unconserved region (NUCR) of mouse PERK, two-hybrid bait (mouse) (UniProt Q9Z2B5)
T1 sequence: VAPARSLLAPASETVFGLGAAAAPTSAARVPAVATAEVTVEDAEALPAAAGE

[2] = target: T2, San1 intrinsically disordered region (IDR), two-hybrid bait (UniProt P22470)
T2 sequence: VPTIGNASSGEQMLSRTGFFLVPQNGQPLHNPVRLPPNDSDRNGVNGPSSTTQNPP

[3] = target: T3, N-terminal unconserved region (NUCR) of human PERK, two-hybrid bait (human) (UniProt Q9NZJ5)
T3 sequence: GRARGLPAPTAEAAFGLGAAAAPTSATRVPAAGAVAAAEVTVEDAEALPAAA

[4] = target: T4, Top2 intrinsically disordered region (IDR), two tandem repeat, two-hybrid bait (UniProt P06786)
T4 sequence: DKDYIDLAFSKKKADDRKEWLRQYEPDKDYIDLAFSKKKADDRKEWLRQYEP

[5] = target: T5, GGGSS, 12 tandem repeat, two-hybrid bait
T5 sequence: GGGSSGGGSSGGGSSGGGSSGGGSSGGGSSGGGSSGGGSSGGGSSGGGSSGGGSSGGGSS

Measured: binding

B1: core stress-sensing region (CSSR) of yeast Ire1, two-hybrid fusion (domain or fragment, UniProt P32361 112-454)
chain: RSLNELSLSDILIAADVEGGLHAVDRRNGHIIWSIEPENFQPLIEIQEPSRLETYETLIIEPFGDGNIYYFNAHQGLQKLPLSIRQLVSTSPLHLKTNIVVNDSGKIVEDEKVYTGSMRTIMYTINMLNGEIISAFGPGSKNGYFGSQSVDCSPEEKIKLQECENMIVIGKTIFELGIHSYDGASYNVTYSTWQQNVLDVPLALQNTFSKDGMCIAPFRDKSLLASDLDFRIARWVSPTFPGIIVGLFDVFNDLRTNENILVPHPFNPGDHESISSNKVYLDQTSNLSWFALSSQNFPSLVESAPISRYASSDRWRVSSIFEDETLFKNAIMGVHQIYNNEYD
binds: [1] | [2] | [3] | [4] | [5]
